{"source": "paper PMC12120770", "key": {"[1]": {"molecular_target": "T1, SoBfr1 expressed in S. oneidensis Δbfr12 (Shewanella oneidensis) (UniProt Q8EHV0)", "T1 sequence": "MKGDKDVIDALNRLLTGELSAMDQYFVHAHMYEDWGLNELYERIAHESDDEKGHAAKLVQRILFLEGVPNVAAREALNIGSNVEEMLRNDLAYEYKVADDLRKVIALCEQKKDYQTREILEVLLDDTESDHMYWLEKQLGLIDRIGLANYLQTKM", "assay": "native gel or EMSA + other: negative-stain TEM; SoBfr1, SoBfr2 and PaBfrB co-expressed in S. oneidensis Δbfr12 grown in irMS, MS or ilMS; 6% native PAGE with iron staining; TEM of the SoBfr12/PaBfrB particles"}, "[2]": {"molecular_target": "T2, SoBfr2 expressed in S. oneidensis Δbfr12 (Shewanella oneidensis) (UniProt Q8EHV1)", "T2 sequence": "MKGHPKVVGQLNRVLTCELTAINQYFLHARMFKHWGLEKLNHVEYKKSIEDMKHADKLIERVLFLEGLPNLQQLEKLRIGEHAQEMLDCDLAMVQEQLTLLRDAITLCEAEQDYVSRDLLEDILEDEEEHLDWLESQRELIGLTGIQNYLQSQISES", "assay": "native gel or EMSA + other: negative-stain TEM; SoBfr1, SoBfr2 and PaBfrB co-expressed in S. oneidensis Δbfr12 grown in irMS, MS or ilMS; 6% native PAGE with iron staining; TEM of the SoBfr12/PaBfrB particles"}}, "note": "No constants are given. Whether binding was seen depends on the method and setting. Some results given as binding are weak or reduced against the parent protein; the word gives no strength.", "data": [{"substance": "PaBfrB co-expressed with SoBfr1 and SoBfr2 in S. oneidensis Δbfr12 (from UniProt Q9HY79 1-158)", "values": [{"measurement": "binding", "setting": "[1]", "value": "binds"}, {"measurement": "binding", "setting": "[2]", "value": "binds"}]}]}
